Experimental data reported in PMC7865483.
No constants are given. Whether binding was seen depends on the method and setting. Binding seen in cells or lysates may run through a third protein. Some entries that bind do so weakly or less than the wild type.

Chains of the proteins cited; added tags and fusions are not shown.
UniProt Q8TE04: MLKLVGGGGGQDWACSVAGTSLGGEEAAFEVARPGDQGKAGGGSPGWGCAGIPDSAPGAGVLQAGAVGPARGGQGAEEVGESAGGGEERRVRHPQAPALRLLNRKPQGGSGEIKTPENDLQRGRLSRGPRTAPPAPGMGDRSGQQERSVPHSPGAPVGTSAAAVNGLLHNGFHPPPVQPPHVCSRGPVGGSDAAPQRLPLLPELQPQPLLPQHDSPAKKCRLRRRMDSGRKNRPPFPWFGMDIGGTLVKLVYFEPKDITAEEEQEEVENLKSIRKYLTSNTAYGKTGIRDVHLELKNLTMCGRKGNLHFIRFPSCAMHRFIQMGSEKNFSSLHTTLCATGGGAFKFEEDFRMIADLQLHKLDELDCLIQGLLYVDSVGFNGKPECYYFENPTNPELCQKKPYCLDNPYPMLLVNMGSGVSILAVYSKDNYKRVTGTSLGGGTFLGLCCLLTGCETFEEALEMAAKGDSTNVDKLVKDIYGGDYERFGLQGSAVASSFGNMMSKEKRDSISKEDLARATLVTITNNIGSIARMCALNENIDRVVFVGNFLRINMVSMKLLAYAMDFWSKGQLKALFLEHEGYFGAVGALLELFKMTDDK

Columns and labels:
[1] = biological target: Pank1 (pantothenate kinase 1), endogenous in A549 cells (human (endogenous in A549)) (UniProt Q8TE04); assay: proximity ligation; in situ PLA (Duolink) on fixed A549 cells, endogenous proteins; cells serum-starved for 24 h, or serum-starved and then treated with 500 μM H2O2
[2] = biological target: Pank1 (pantothenate kinase 1), endogenous in A549 cells (human (endogenous in A549)) (UniProt Q8TE04); assay: condition: only exponentially growing cells in full medium, without serum starvation or H2O2; proximity ligation; in situ PLA (Duolink) on fixed A549 cells, endogenous proteins; control cells growing exponentially in full medium, not starved or treated
[3] = biological target: Pank1 (pantothenate kinase 1), endogenous in A549 cells (human (endogenous in A549)) (UniProt Q8TE04); assay: condition: only serum-starved cells treated with 1 μM insulin or 100 ng/mL FGF-2 for 6 h; proximity ligation; in situ PLA (Duolink) on fixed A549 cells, endogenous proteins; cells serum-starved for 24 h, then treated with 1 μM insulin or 100 ng/mL FGF-2 for 6 h

B1: CoA synthase (CoAsy) (enzyme, UniProt Q13057 1-564)
chain: MAVFRSGLLVLTTPLASLAPRLASILTSAARLVNHTLYVHLQPGMSLEGPAQPQSSPVQATFEVLDFITHLYAGADVHRHLDVRILLTNIRTKSTFLPPLPTSVQNLAHPPEVVLTDFQTLDGSQYNPVKQQLVRYATSCYSCCPRLASVLLYSDYGIGEVPVEPLDVPLPSTIRPASPVAGSPKQPVRGYYRGAVGGTFDRLHNAHKVLLSVACILAQEQLVVGVADKDLLKSKLLPELLQPYTERVEHLSEFLVDIKPSLTFDVIPLLDPYGPAGSDPSLEFLVVSEETYRGGMAINRFRLENDLEELALYQIQLLKDLRHTENEEDKVSSSSFRQRMLGNLLRPPYERPELPTCLYVIGLTGISGSGKSSIAQRLKGLGAFVIDSDHLGHRAYAPGGPAYQPVVEAFGTDILHKDGIINRKVLGSRVFGNKKQLKILTDIMWPIIAKLAREEMDRAVAEGKRVCVIDAAVLLEAGWQNLVHEVWTAVIPETEAVRRIVERDGLSEAAAQSRLQSQMSGQQLVEQSHVVLSTLWEPHITQRQVEKAWALLQKRIPKTHQALD
Question: B1 was tested. Which binding [1] did it give?
Answer: Its binding is “binds”.

Question: What about the binding [2] of the same binder?
Answer: Its binding is “no binding”.

Question: And the binding [3]?
Answer: The binding was “no binding”.
